The source of these data is the supplement of paper PMC4604168 (melanoma cell lines).

The list shows a part of the results. Many values rest on one well or one pass, so single values are uncertain.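 Cells were imaged in 1,536-well plates, and nuclei stained with an antibody against cleaved PARP were counted against all DNA-stained nuclei to give the apoptosis fraction. Screening doses were chosen to leave most cells alive, and resting and induced cleaved-PARP levels differ strongly between cell lines.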

What all share (assay): cleaved PARP positive nuclei fraction relative to DMSO control; melanoma cells; higher = more apoptosis
Holding throughout (details): library dose: low library concentration; 72 h

Experiment [1] relates to 501Mel.
For experiment [2], the system named is A101D.
The subject of experiment [3] is A2058.
In experiment [4] the test system is A375.
For experiment [5], the system named is C32.
Experiment [6] concerns CBRC008 (line from a melanoma biopsy).
The test system of experiment [7] is CBRC014 (line from a melanoma biopsy).
The subject of experiment [8] is CBRC016 (line from a melanoma biopsy).
For experiment [9], the system named is CBRC017 (line from a melanoma biopsy).
In experiment [10] the test system is CBRC034 (line from a melanoma biopsy).
Experiment [11] deals with COLO792.
Experiment [12] deals with COLO800.
The test system of experiment [13] is COLO829.
For experiment [14], the system named is G361.
In experiment [15] the test system is IPC-298.
The test system of experiment [16] is IST-MEL1.
Experiment [17] has as its system LB2518-MEL.
Experiment [18] deals with LOXIMVI.
Experiment [19] deals with MEL-HO.

With `CC(=O)O[C@@]12CO[C@@H]1C[C@H](O)[C@@]1(C)C(=O)[C@H](O)C3=C(C)[C@@H](OC(=O)[C@H](O)[C@@H](NC(=O)OC(C)(C)C)c4ccccc4)C[C@@](O)([C@@H](OC(=O)c4ccccc4)[C@H]21)C3(C)C` [Docetaxel] + CNC(=O)c1cc(Oc2ccc(NC(=O)Nc3ccc(Cl)c(C(F)(F)F)c3)cc2)ccn1 [sorafenib] (first compound 0.0001 µM, partner dose 0.4 µM), the “cleaved PARP positive nuclei fraction” value in [1] was determined as 139%; in experiment [2] it was 72%; in experiment [3], 1800%; in [4], 2480%; in experiment [5] it was 80.3%; in [6], 1270%. The “cleaved PARP positive nuclei fraction” value in [7] was 140%; in experiment [8], 307%; in [9], 174%; in experiment [10], 401%; in [11], 565%; in [12] it was 475%. Besides, the “cleaved PARP positive nuclei fraction” value in experiment [13] is 368%; in experiment [14], 830%; in experiment [15] it was 311%; in experiment [16], 227%; in [17], 241%; in experiment [18] it was 68.6%. Moreover, the “cleaved PARP positive nuclei fraction” value in [19] was 350%.

Regarding `C[C@@H](N)c1ccc(C(=O)Nc2ccnc3[nH]ccc23)cc1` + CC(=O)c1c(C)c2cnc(Nc3ccc(N4CCNCC4)cn3)nc2n(C2CCCC2)c1=O [palbociclib] (first compound 0.4 µM, partner dose 0.04 µM), the “cleaved PARP positive nuclei fraction” value in experiment [1] was determined as 103%; in experiment [2] it was 89.3%; in experiment [3] it was 202%; in experiment [4], 144%; in experiment [5] it was 135%; in experiment [6], 51.1%. Also, the “cleaved PARP positive nuclei fraction” value in experiment [7] was 167%; in experiment [8], 125%; in experiment [9] it was 147%; in experiment [10] it was 59.2%; in experiment [11] it was 265%; in [12], 96.8%. Also, the “cleaved PARP positive nuclei fraction” value came to 138% in experiment [13]; 120% in experiment [14]; 90.6% in experiment [15]; 68.8% in experiment [16]; 122% in [17]; 59.2% in experiment [18]. Further, the “cleaved PARP positive nuclei fraction” value in [19] was 280%.

As to `CN(c1ncccc1CNc1nc(Nc2ccc3c(c2)CC(=O)N3)ncc1C(F)(F)F)S(C)(=O)=O` + NC1(c2ccc(-c3nc4ccn5c(=O)[nH]nc5c4cc3-c3ccccc3)cc2)CCC1 [MK2206] (first compound 0.08 µM, partner dose 0.4 µM), the “cleaved PARP positive nuclei fraction” value stood at 68.2% in experiment [1]; 171% in [2]; 174% in experiment [3]; 154% in [4]; 49.7% in experiment [5]; 99.6% in [6]. For the same molecule, the “cleaved PARP positive nuclei fraction” value in [7] came to 85.4%; in experiment [8], 65.7%; in experiment [9] it was 223%; in [10], 135%; in experiment [11], 110%; in experiment [12], 240%. The “cleaved PARP positive nuclei fraction” value in [13] amounted to 210%; in experiment [14] it was 125%; in [15], 46.3%; in experiment [16], 306%; in experiment [17] it was 123%; in [18], 120%. Also, the “cleaved PARP positive nuclei fraction” value in experiment [19] is 87.5%.

As for `CS(=O)(=O)c1ccc(C(=O)Nc2ccc(Cl)c(-c3ccccn3)c2)c(Cl)c1` [vismodegib] + Nc1cccc2c1CN(C1CCC(=O)NC1=O)C2=O [lenalidomide] (first compound 1 µM, partner dose 1 µM), the “cleaved PARP positive nuclei fraction” value in [1] was 99.5%; in [2], 75%; in [3], 120%; in experiment [4], 172%; in experiment [5], 74.8%; in experiment [6], 170%. Further, the “cleaved PARP positive nuclei fraction” value worked out at 107% in experiment [7]; 44.6% in experiment [8]; 98.5% in experiment [9]; 94.5% in [10]; 65.6% in [11]; 89.9% in experiment [12]. The “cleaved PARP positive nuclei fraction” value in [13] is 31.6%; in experiment [14], 83.9%; in experiment [15], 46.7%; in experiment [16], 252%; in [17] it was 38.9%; in experiment [18], 178%. In addition, in experiment [19], the “cleaved PARP positive nuclei fraction” value worked out at 55.3%.

Regarding `COc1ccc(C2=N[C@@H](c3ccc(Cl)cc3)[C@@H](c3ccc(Cl)cc3)N2C(=O)N2CCNC(=O)C2)c(OC(C)C)c1` [Nutlin-3] + CC(C)C[C@H](NC(=O)[C@H](Cc1ccccc1)NC(=O)c1cnccn1)B(O)O [Bortezomib] (first compound 0.1 µM, partner dose 0.001 µM), the “cleaved PARP positive nuclei fraction” value came out at 96.3% in experiment [1]; 195% in [2]; 89% in experiment [3]; 138% in experiment [4]; 96% in [5]; 357% in experiment [6]. Further, the “cleaved PARP positive nuclei fraction” value was determined as 136% in experiment [7]; 118% in experiment [8]; 201% in experiment [9]; 117% in [10]; 92.7% in experiment [11]; 193% in experiment [12]. The “cleaved PARP positive nuclei fraction” value came to 128% in [13]; 1090% in experiment [14]; 95.9% in experiment [15]; 136% in [16]; 209% in experiment [17]; 140% in experiment [18]. For the same molecule, the “cleaved PARP positive nuclei fraction” value in experiment [19] came out at 40.3%.

Regarding `CC1(C)CCC(c2ccc(Cl)cc2)=C(CN2CCN(c3ccc(C(=O)NS(=O)(=O)c4ccc(N[C@H](CCN5CCOCC5)CSc5ccccc5)c(S(=O)(=O)C(F)(F)F)c4)cc3)CC2)C1` + CCCCCCCCc1ccc(CCC(N)(CO)CO)cc1 [fingolimod] (first compound 0.4 µM, partner dose 2 µM), the “cleaved PARP positive nuclei fraction” value in experiment [1] worked out at 271%; in [2], 665%; in experiment [3], 103%; in experiment [4] it was 731%; in experiment [5], 564%; in [6], 390%. In addition, the “cleaved PARP positive nuclei fraction” value stood at 354% in experiment [7]; 228% in [8]; 360% in experiment [9]; 115% in experiment [10]; 294% in experiment [11]; 278% in experiment [12]. The “cleaved PARP positive nuclei fraction” value came out at 61.2% in experiment [13]; 129% in [14]; 500% in experiment [15]; 320% in [16]; 52.1% in experiment [17]; 251% in [18]. For the same molecule, the “cleaved PARP positive nuclei fraction” value in experiment [19] turned out to be 417%.

With `COc1ccc(C2=N[C@@H](c3ccc(Cl)cc3)[C@@H](c3ccc(Cl)cc3)N2C(=O)N2CCNC(=O)C2)c(OC(C)C)c1` [Nutlin-3] + Nc1nc(F)nc2c1ncn2[C@@H]1O[C@H](CO)[C@@H](O)[C@@H]1O [fludarabine] (first compound 0.1 µM, partner dose 0.2 µM), the “cleaved PARP positive nuclei fraction” value in experiment [1] stood at 13000%; in experiment [2], 152%; in experiment [3] it was 103%; in experiment [4], 5490%; in experiment [5] it was 77.5%; in [6], 155%. For the same molecule, the “cleaved PARP positive nuclei fraction” value came to 220% in experiment [7]; 175% in experiment [8]; 97.9% in [9]; 194% in experiment [10]; 185% in [11]; 86.4% in experiment [12]. Besides, the “cleaved PARP positive nuclei fraction” value in experiment [13] was determined as 137%; in experiment [14], 110%; in [15], 30.7%; in experiment [16] it was 199%; in [17], 68.2%; in experiment [18], 68.4%. For the same molecule, the “cleaved PARP positive nuclei fraction” value in experiment [19] was determined as 77.7%.
